# Measured values published in PubChem BioAssay AID651640 (Broad Institute, 2012).
# Screen size: about 350,000 compounds; about 6,000 (1.7%) were called active. This list was built around the results that the source calls inconclusive (neither active nor inactive); the mix of calls is not that of the screen. No stated cut-off is given here; in the data, active means CPE inhibition above about 20% (passing the limit was not always enough); inconclusive means no clear call, values can overlap the other calls; tested in BHK-21 cells. The source holds several records for some structures; these can differ, active in one and inactive in another.
# Assay: protection of cells from dengue 2 killing – plate reader, single concentration, primary screen (AID 651640);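 further: 0% = median of neutral control wells and 100% = median of positive control wells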
# Conditions: DENV2-infected cells, cytopathic effect rescue, at 9.99 µM, stronger effect = higher value
row,SMILES,CPE inhibition
1,COc1ccc(CNC(=O)CSc2n[nH]c(N)n2)cc1,inconclusive: 29.1%
2,CC(C)NC(=O)N(C)C[C@H]1Oc2cc(C#Cc3cccc(F)c3)ccc2S(=O)(=O)N([C@H](C)CO)C[C@H]1C,inconclusive: 36.4%
3,NC(=S)NN=Cc1nccc2c(C(F)(F)F)cccc12,inconclusive: 51.1%
4,CCCC(NC(=O)C(C)N1CCN(S(=O)(=O)c2ccccc2)CC1)c1ccccc1 (stereo not drawn),inconclusive: 67.4%
5,Cc1ccn2c(=O)nc(SCC(=O)N3CCCc4ccccc43)nc2c1,inactive: 14.4%
6,CC(C)C(=O)N1CCC1(C)C(=O)Nc1ccccc1OC(F)F (stereo not drawn),inconclusive: 25.7%
7,C[C@@H]1CN([C@@H](C)CO)C(=O)CCCn2cc(nn2)CO[C@H]1CN(C)C(=O)Nc1ccc(C(F)(F)F)cc1,inconclusive: 45.9%
8,Cc1cccc(C)c1OCC(=O)N(Cc1cccs1)C1CCS(=O)(=O)C1 (stereo not drawn),inconclusive: 33.1%
9,COc1cccc(-c2ccc(CC[C@H]3O[C@H]4CC[C@@H](CO)O[C@H]4C[C@@H]3NS(C)(=O)=O)cc2)c1,inconclusive: 87.4%
10,O=C(C[C@H]1CC[C@H]2[C@@H](COC[C@H](O)CN2S(=O)(=O)c2ccc(F)cc2)O1)NCC1CCCCC1,inconclusive: 22.4%
11,CSc1ccccc1NC(=O)CN(C)C(=O)Cn1c(=O)oc2ccccc21,inconclusive: 25.2%
12,COc1ccc2c3c(n(C)c2c1)[C@@H](CO)N(C(=O)NC1CCCCC1)CC31CN(C)C1,active: 32%
13,O=C(CNC1CCCCC1)Nc1cc(S(=O)(=O)N2CCOCC2)ccc1Cl,inconclusive: 25.6%
14,Cc1ccsc1C(=O)OCC(=O)N1CCc2ccccc2C1,inconclusive: 20.9%
15,COc1ccccc1-c1ccc([C@@H]2[C@@H](C#N)N(C(=O)NC(C)C)[C@@H]2CO)cc1,inconclusive: 22%
16,CC(=O)NC[C@H]1[C@H](c2ccc(C3=CCCC3)cc2)[C@H](CO)N1C(=O)NC(C)C,inconclusive: 52.3%
17,CCC(=O)N1CC[C@H]2[C@H](CO)Nc3ccc(C#Cc4ccc(OC)cc4)cc3[C@H]21,active: 56.2%
18,CC(CNC(=O)C1CCCCC1)NC(=O)C1CCCCC1 (stereo not drawn),inactive: 15.7%
19,Nc1ccc(CC(N)c2csc(Nc3cc(Oc4ccccc4)ncn3)n2)cc1 (stereo not drawn),active: 46.2%
20,C#CCSc1nnc(CNS(=O)(=O)c2ccc(Br)cc2)n1C,inconclusive: 29.8%
21,CCCNC(=O)C[C@@H]1C[C@@H]2c3cc(NC(=O)COC)ccc3O[C@@H]2[C@@H](CO)O1,inconclusive: 23.3%
22,C[C@H](CO)N1C[C@H](C)[C@H](CN(C)S(=O)(=O)c2ccc(F)cc2)Oc2c(NC(=O)Nc3ccccc3)cccc2C1=O,inconclusive: 20.4%
23,COc1cccc(S(=O)(=O)N2CC3(CN(C(=O)Nc4cccc(F)c4)[C@@H](CO)c4[nH]c5cc(OC)ccc5c43)C2)c1,inactive: -11.4%
24,C=CCN1CC(COCCCC)Oc2ccc(Cl)cc2S1(=O)=O (stereo not drawn),inactive: -12%
25,CCN1CCN(c2nc(-c3ccc(F)cc3)cc(=O)[nH]2)CC1,inconclusive: 22%

# Pulled by structure from the list above:
row,SMILES,CPE inhibition
10,O=C(C[C@H]1CC[C@H]2[C@@H](COC[C@H](O)CN2S(=O)(=O)c2ccc(F)cc2)O1)NCC1CCCCC1,inconclusive: 22.4%
3,NC(=S)NN=Cc1nccc2c(C(F)(F)F)cccc12,inconclusive: 51.1%
15,COc1ccccc1-c1ccc([C@@H]2[C@@H](C#N)N(C(=O)NC(C)C)[C@@H]2CO)cc1,inconclusive: 22%

# Continuation.

row,SMILES,CPE inhibition
1,CNC[C@@H]1OCc2ccccc2-c2c(n(C)c3ccccc23)C(=O)N([C@H](C)CO)C[C@@H]1C,active: 32.6%
2,CCC(C)[C@H](NC(=O)[C@@H]1Cc2ccccc2CN1)C(=O)NCc1ccc(C)cc1 (stereo partly drawn),active: 92%
3,CC(C)Nc1nc(NC(C)C)nc(Nn2cnnc2)n1,inactive: -0.925%
4,CO[C@@H]1CN(C)C(=O)c2cc(NS(C)(=O)=O)ccc2OC[C@H](C)N(CC2CCCCC2)C[C@@H]1C,inconclusive: 47.7%
5,CO[C@H]1CN(C)C(=O)c2ccc(NC(=O)Nc3ccc(Cl)c(Cl)c3)cc2OC[C@H](C)NC[C@@H]1C,inactive: 3.55%
6,C[C@@H]1CN([C@H](C)CO)C(=O)c2cc(C#CCN(C)C)cnc2O[C@@H]1CN(C)C(=O)c1ccc(F)cc1,inconclusive: 24.7%
7,C/C(=N\NC(=O)c1ccc(Cl)c(Cl)c1)c1ccccn1,inconclusive: 20.4%
8,CCOC(=O)[C@]12CCC=C1N(Cc1ccc(Cl)cc1Cl)C(=O)[C@H](CC(=O)N1CCN(C(=O)c3ccco3)CC1)C2,inconclusive: 45.7%
9,O=C(NCCc1ccc(O)c(O)c1)C1COc2ccccc2O1 (stereo not drawn),inconclusive: 23.4%
10,O=C(Nc1cccc(C(=O)O)c1)/C(=C\c1ccc2c(c1)OCO2)NC(=O)c1ccccc1Cl,inconclusive: 68.9%
11,C[C@H](CO)N1C[C@H](C)[C@H](CN(C)C)OCCCC[C@H](C)Oc2ccc(NS(=O)(=O)c3ccc(Cl)cc3)cc2C1=O,inconclusive: 57%
12,CCCc1cc(=O)oc2c(C)c(OCC(=O)N3C[C@H]4C[C@@H](C3)c3cccc(=O)n3C4)ccc12,active: 28.7%
13,O=S(=O)(NCc1ccccc1F)NCc1ccccc1F,inconclusive: 36.3%
14,Cc1ccc(OCC(=O)Nc2ccc3c(c2)nc(CCN2CCCC2)n3C)cc1,inconclusive: 20.6%
15,COc1ccc(C2CC(c3cccs3)=NN2C(=O)CCC(=O)O)cc1OC (stereo not drawn),active: 36.9%
16,O=C(C[C@H]1CC[C@H](NC(=O)Cc2cccnc2)[C@H](CO)O1)NCc1ccc2c(c1)OCO2,inconclusive: 22.8%
17,C[C@@H]1CN([C@H](C)CO)C(=O)Cc2cc(NS(=O)(=O)c3cn(C)cn3)ccc2O[C@H]1CN(C)CC1CC1,inconclusive: 22.8%
18,O=C(c1[nH]c(C(F)(F)F)nc1-c1ccccc1)N1CCN(c2cccc(C(F)(F)F)n2)CC1,inconclusive: 46.9%
19,CS(=O)(=O)N1CCC(C(=O)Nc2cc(Cl)c(Cl)cc2Cl)CC1,inconclusive: 37.3%
20,CNC(=O)NC(=O)CSc1nnc(-c2ccc(F)cc2)n1CC1CCCO1 (stereo not drawn),inconclusive: 38.3%
21,CCOC(=O)N(C)C[C@H]1OCc2cn(nn2)CCCC(=O)N([C@@H](C)CO)C[C@H]1C,inconclusive: 21.1%
22,O=C(C1CCCCC1)N1CC2(C1)[C@H](c1ccccc1)[C@H](CO)N2Cc1nccs1,inactive: -2.05%
23,O=C(C1CCOCC1)N1[C@H](CO)[C@@H](c2ccccc2)C12CN(Cc1cccnc1)C2,active: 96.9%
24,C[C@@H]1CN([C@@H](C)CO)C(=O)c2cc(NC(=O)Nc3ccc(C(F)(F)F)cc3)ccc2O[C@H]1CN(C)C,inactive: 1.47%
25,CS(=O)(=O)N1CC2(C1)[C@@H](c1ccccc1)[C@@H](CO)N2Cc1ccccc1,active: 27.5%

row,SMILES,CPE inhibition
1,C[C@H]1CN([C@@H](C)CO)C(=O)c2cc(NC(=O)Nc3cccc4ccccc34)ccc2O[C@H]1CN(C)CC1CCCCC1,inconclusive: 23%
2,C[C@@H]1CN([C@@H](C)CO)C(=O)c2cc(NC(=O)Cc3ccccc3)ccc2O[C@H]1CN(C)Cc1ccc(C(=O)Nc2ccccc2N)cc1,inconclusive: 20%
3,C[C@@H]1CN([C@H](C)CO)C(=O)Cc2cc(NC(=O)c3ccncc3)ccc2O[C@H]1CN(C)C(=O)Nc1cccc2ccccc12,inactive: 17.7%
4,O=C(c1ccncc1)N1C[C@@H]2[C@H](c3ccccc31)[C@@H](CO)N2C(=O)Nc1ccccc1Cl,inconclusive: 23.6%
5,CNC[C@H]1OCCCC[C@H](C)Oc2ccc(NC(=O)Nc3ccccc3)cc2C(=O)N([C@H](C)CO)C[C@H]1C,inconclusive: 47.1%
6,CCC(=O)Nc1ccc2c(c1)C(=O)N(C)[C@@H]1CC[C@@H](CC(=O)NC3CCCC3)O[C@H]1CO2,inconclusive: 20.7%
7,CS(=O)(=O)N1[C@@H](C#N)[C@H](c2ccc(-c3ccccc3F)cc2)[C@@H]1CO,inconclusive: 21.1%
8,C[C@H](CO)N1C[C@H](C)[C@@H](CN(C)Cc2ccc(C(F)(F)F)cc2)OCCCC[C@H](C)Oc2ccc(NC(=O)Cc3ccccc3)cc2C1=O,inactive: -3.35%
9,CCCN(CCC)CCCNC(=O)c1cc2c(=O)[nH]c3ccccc3c2n1C,active: 28.6%
10,CCS(=O)(=O)N1CC2(C1)[C@@H](c1ccccc1)[C@H](CO)N2Cc1ccc(F)cc1,active: 35.5%
11,COc1ccc(S(=O)(=O)Nc2ccc3c(c2)C(=O)N([C@H](C)CO)C[C@@H](C)[C@@H](CN(C)S(=O)(=O)c2ccc(F)cc2)O3)cc1,inactive: 0.532%
12,CC(C)(C)N(Cc1ccccc1)C(=O)COC(=O)c1ccc([N+](=O)[O-])o1,inconclusive: 34%
13,CCOc1ccc(NC(=O)CN(C)C(=O)Cc2ccc3c(c2)OCCO3)cc1OCC,inconclusive: 23.4%
14,CCOC1=C2[C@@H](CN(S(=O)(=O)c3ccc(C)cc3)[C@H]2c2ccccc2)[C@H]2C(=O)N(c3ccccc3)C(=O)[C@H]2C1,inconclusive: 91.6%
15,O=C(c1ccccc1)c1ccccc1,inactive: -10.9%
16,O=C(NCC[C@H]1CC[C@H](NC(=O)C2CC2)[C@@H](CO)O1)c1ccc(F)cc1,inactive: -6.48%
17,C[C@H]1CN([C@@H](C)CO)C(=O)c2cc(NC(=O)Cn3cnnn3)ccc2O[C@@H]1CN(C)C(=O)NC1CCCCC1,inconclusive: 22.7%
18,O=C(C[C@@H]1CC[C@H]2[C@@H](COC[C@H](O)CN2C(=O)Nc2ccc(Cl)cc2)O1)NCC1CC1,inactive: 6.37%
19,Cc1ccc(CNC(=O)CCc2c(C)[nH]c(=O)c(C#N)c2C)cc1,inconclusive: 23.6%
20,O=C(c1ccco1)N1CCN(Cc2cc(=O)c(OCc3ccccc3F)co2)CC1,inconclusive: 21.3%
21,COc1cccc(CNC(=S)Nc2cc(C)ccc2C)c1,inactive: 0.825%
22,CCN1CCN(CCC(=O)Nc2ccc(Br)c(C)c2)CC1,active: 23.4%
23,CCC(=O)N1[C@@H]2c3cccc(=O)n3C[C@@H]2[C@@H](CO)[C@@H]1C(=O)NC1CCCC1,inactive: 1.45%
